The target of series [1] is T1, 6xHis-CerM (Cereibacter sphaeroides WS8N) (UniProt Q3J1N9).
T1 sequence (looked up): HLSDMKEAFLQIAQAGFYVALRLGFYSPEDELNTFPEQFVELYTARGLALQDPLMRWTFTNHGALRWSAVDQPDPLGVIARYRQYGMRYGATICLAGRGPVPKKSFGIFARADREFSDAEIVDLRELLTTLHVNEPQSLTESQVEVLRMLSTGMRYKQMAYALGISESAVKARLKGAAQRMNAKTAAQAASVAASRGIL
Nature of the series: EMSA. The settings on record: 10 mM Tris pH 7.5, 1 mM EDTA, 0.1 M KCl, 0.1 mM DTT, 5% glycerol, 0.10 mg/mL BSA, 20 min room temperature, 50 ng DNA, 50-200 ng CerM. On the technique in general: In EMSA bound probe runs differently from free probe, usually more slowly.

Series [2] concerns the target T2, GST-CerN (Cereibacter sphaeroides WS8N) (UniProt Q3J1P0).
T2 sequence (looked up): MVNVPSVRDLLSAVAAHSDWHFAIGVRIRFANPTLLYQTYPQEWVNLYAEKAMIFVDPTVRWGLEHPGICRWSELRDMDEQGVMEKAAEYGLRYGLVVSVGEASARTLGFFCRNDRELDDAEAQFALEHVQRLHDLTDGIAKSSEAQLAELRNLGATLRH
Nature of the series: EMSA. The note with it: 10 mM Tris pH 7.5, 1 mM EDTA, 0.1 M KCl, 0.1 mM DTT, 5% glycerol, 0.10 mg/mL BSA, 20 min room temperature, 50 ng DNA, 50-200 ng CerM, 4% native gel in TAE pH 7.8, recombinant protein, residues 1-160, protein details: N-terminal GST (pGEX-4T-2), probe letters rebuilt from the primers and the genome.

Setting [3] is: 200 ng CerM, 4% native gel in TAE pH 7.8, recombinant protein, residues 21-219, probe letters rebuilt from the primers and the genome.

No signal at the amounts used counts as a negative. Tags and fusion partners may be left off the protein sequences shown. For some of these results: The comparison behind a weaker result is the experiment's own reference, which may not be listed here. For some of these results: The exact form of at least one protein or probe is not confirmed.

“GCCTGCAGCATGAGCCCCCGGGCGATCAGCACGATGGCCGCGAAGGTGAGCGCCACCATGGCGGCTTCGAGCCGCATGTCGAGGTCGGAGGCGAAGAGAGCGGTCACCAGGGCCCCGCCGGCCACGGCGAGCAGAAGCCAGTGCCTTGAGCGGAGACCTTCCGCCGCCCCCACGAGATCTGCTGACTGCCTGTGCACTGACATCCCCGAGCCGGATTCGCCCCGCGGACATTCGGCCCTGAAATCGTTAAGCACTGTTTAATCTGCGCGAGGATCCAGCTCGCAAAGCCCGGAAACTCAGCCGTTTCTCTGCAACAGGTCGAGGAAGAAGCCGTCGCCGCCATCGAGAGGGGTCAGTCGCAGCTGGTGCACCCGCGTCCAGCCGGAGGTCCGCTCGAGGAAAGCTCTAGACC (double strand) [cckA control region (396 bp)]”: the binding result in series [1] (setting [3]) is listed as “no binding”.

Consider “GATATCAGATGCGCGAACCCAGAAGGGCGGTCAGATCGGTTTTTTCGGTCATGGGCGGGCTCCACGAAAGGCGGAAGGAACGGACATGAACACGCTGCTCGAACCAGGAATGCTGGTCCGGCATCCGGGGCAACCGGAGTGGGGGATGGGTCAGGTGCAATCCAACGTCAAAGGTCGGATCACGGTGAACTTCGAACACGCAGGCAAGGTCTTGATCGATGGCGGTCGGGTCGAGCTGCAACTTGTGCTTGATCTTCCGCACTGATCTAGCGACGTGTGGTTGCATATTTCAACCATGAATTGAGGGCATTTCGGCGCAGGGCGCCGCGCCTCCGGGGGCAGGAGCGACCCGGGCGACAGTTGCATCCGGCAGGGGCATTTCCTATGAAGCCCTGACCGTCCGGTGAGGGAGGCAAGGTCCGGGAATGATCGCCGACGACCCGCATCTGGAACTGAGGCTCGCCGCGTCCGAGCGCGATCTGCGCGCGGCCCAGCGGCTGCGCTATACGGTCTTCGTCGAGGAGCTCGGCGGCGACGGGGATCTCGTCGACCATGCAGAGCGGCTCGAGCGCGATGAGTTCGACGATCTCTGCGACCATCTCCTGCTGGATCC (double strand) [chpT control region (603 bp)]”, for which, in series [1] (setting [3]), the binding result was “no binding”.

With “CCCTCCCCTGATATCGGGAACTCGATCGCCTCGCGAAGCGTCTTCCGCACCTCGAAGGCAGGCCGGGACAGCCCCTGATCGGCACCCGCACCGCCGTCTGCGGCCGCGGCCCGACTGCAGGTTGCAGCTCAGCCCGATGGCCCGCAACCGGCGCGTGTAAACCGGGTCTTTTTAGACAGGTCGGGGTGGCGGATTGTTGACTCCATCATGTTGGCGTGAAATCTCACTATCAGGTGGGGCAAGAGGCTATTCGGATTAATCGTACAGCCTTTGGTATGGGTCTTCCGGTCGGTGGGCATTTTTACG (double strand) [17824 regulatory region (306 bp)]”, the binding result in series [1] (setting [3]) is “binds”.

“CGCCACATCCGTCGCCATCGCCACCAGCATGGTGCCCGCATGGAACATGCTTCTGCCTCCTTCGGAGAGCGGCTCCTGCGGCGCGCTCACGTCTCGATTTCGGAGAATTCCCCTCCTTCTGCAAGGGCGGAGCCATCCGCCGGAGGGCTGGCCTGTCGGTTTGGGCAGGTCGCGTTCTTCGCAGAAAGAGGTAAGAAGAACGCAGGGAAATTGCTTTGACTTCCCCCTGTTGCTCGTTCGCCGGAGATCCTCCATGCCGCAGTCCCATCACCGCGAAACCGCCCGTCTGGTTCGTCACCGGCGCTGGGTTCTCGGCCTGTCTC (double strand) [07465 regulatory region (323 bp)]”: in series [1] (setting [3]), the binding result is listed as “binds”.

As for “GCGAGCTCGTTTCCGGTCTTGGCGATTTGGGCCCGTCTCCTCGGAGGCGGGCCTTTTTCTTTTTGGCGTCATGGACTTTTGTCCGATGGCCAAAGGGATGGGATTACCGCAAAAGGCAGTTGCAGACAGGCGGATTCACCATTGCCAAAAAACGTGTTTGCTTCATGAGATGGTTGTCATAAAGCTAGCTTTGCGACGGCGTGGGGATCGCCGAATATCGAGCTTGTCCATCCCAAGCGATTTGCTGTGCACTGTTTCCCGAATGACGATAAATTCAAAAATCGATCTTGAAATCAGTCAACTCCGGCGCATGGCCACGGCAGGCTACTTTCTGGGCCTGCACGAGCTCGC (double strand) [gtaR regulatory region (337 bp)]”, the binding result in series [1] (setting [3]) was “binds more weakly”.

For the sequence “CCCGAATATTCGCGACTTGCAAAGTTTCGGCGGCGAATTCGCTGCAAATTGCATTGCAGAATGCAAAAGACCTCAGAGGCGAGTGACGTGTCTCCCGTGCTCCCGAGGGATGATCCACAGCGGCGGACGCCGAACGAACCCAGCTTGTATGAATGGACATATCCAAAAAGACAGGTTTGTTTCAAGACAAGTTTTTCTGGATGGAATTGGACGTCGGGCGGGGTTTTGGCACACAATATGCTTGTTATCCGGGCAGGGACAGCTGGAAGATTTACGGAGACATTTCATGAAACATCCCGTCGACGCCCAC (double strand) [14710 fragment A (310 bp)]”, the binding result in series [2] (no AHL) is recorded as “no binding”; in series [2] (with AHL), “no binding”; in series [1] (two complexes, 4% native gel in TAE pH 7.8, recombinant protein, residues 21-219, probe letters rebuilt from the primers and the genome), “binds”; in series [1] (with AHL from AM1 supernatant, 4% native gel in TAE pH 7.8, recombinant protein, residues 21-219, probe letters rebuilt from the primers and the genome) it was “binds more weakly”; in series [1] (with culture supernatant extract of delta-cerI (no AHL), 4% native gel in TAE pH 7.8, recombinant protein, residues 21-219, probe letters rebuilt from the primers and the genome), “binds”; in series [1] (with equimolar GST-CerN and AHL from AM1 supernatant (0.66 uL), 4% native gel in TAE pH 7.8, recombinant protein, residues 21-219, probe letters rebuilt from the primers and the genome), “binds more weakly”. Further, the binding result in series [1] (with equimolar GST-CerN and synthetic 3OH-C14-HSL, 4% native gel in TAE pH 7.8, recombinant protein, residues 21-219, probe letters rebuilt from the primers and the genome) is recorded as “binds more weakly”; in series [1] (with equimolar GST-CerN, no AHL, 4% native gel in TAE pH 7.8, recombinant protein, residues 21-219, probe letters rebuilt from the primers and the genome) it was “binds”.

Source of the values: publication PMC11655674.
